# Test results as given in the supplement of paper PMC12067093, “Discovery and optimisation of a covalent ligand for TRIM25 and its application to targeted protein ubiquitination” (Chemical Science, 2025).
# Amino acid sequences for entries named in this document (tags omitted). A change or cut given only in a name is not applied to a line headed by its entry.
# UniProt Q05086: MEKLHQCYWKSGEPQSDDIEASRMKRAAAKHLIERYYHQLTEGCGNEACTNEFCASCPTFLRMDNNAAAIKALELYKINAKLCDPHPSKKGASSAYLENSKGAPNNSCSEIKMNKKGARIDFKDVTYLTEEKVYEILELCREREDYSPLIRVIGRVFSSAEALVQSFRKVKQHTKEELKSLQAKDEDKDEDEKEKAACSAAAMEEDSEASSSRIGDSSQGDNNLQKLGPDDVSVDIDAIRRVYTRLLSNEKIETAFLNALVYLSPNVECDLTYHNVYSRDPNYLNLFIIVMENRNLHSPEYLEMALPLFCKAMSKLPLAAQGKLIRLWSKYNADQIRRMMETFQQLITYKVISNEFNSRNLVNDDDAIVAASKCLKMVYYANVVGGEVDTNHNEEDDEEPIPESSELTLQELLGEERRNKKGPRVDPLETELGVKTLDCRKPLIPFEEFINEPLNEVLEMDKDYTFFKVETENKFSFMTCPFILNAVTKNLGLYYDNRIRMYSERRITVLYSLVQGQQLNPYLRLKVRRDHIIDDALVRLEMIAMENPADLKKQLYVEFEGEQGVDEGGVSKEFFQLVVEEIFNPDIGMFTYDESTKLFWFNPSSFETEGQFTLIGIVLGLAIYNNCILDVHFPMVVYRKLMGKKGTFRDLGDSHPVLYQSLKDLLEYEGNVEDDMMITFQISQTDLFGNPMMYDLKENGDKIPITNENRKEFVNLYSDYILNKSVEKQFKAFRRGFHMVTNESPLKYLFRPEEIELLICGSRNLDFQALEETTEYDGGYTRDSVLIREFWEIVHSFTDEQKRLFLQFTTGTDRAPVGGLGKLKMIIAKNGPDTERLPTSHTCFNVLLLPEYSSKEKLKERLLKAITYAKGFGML
# UniProt Q9H832: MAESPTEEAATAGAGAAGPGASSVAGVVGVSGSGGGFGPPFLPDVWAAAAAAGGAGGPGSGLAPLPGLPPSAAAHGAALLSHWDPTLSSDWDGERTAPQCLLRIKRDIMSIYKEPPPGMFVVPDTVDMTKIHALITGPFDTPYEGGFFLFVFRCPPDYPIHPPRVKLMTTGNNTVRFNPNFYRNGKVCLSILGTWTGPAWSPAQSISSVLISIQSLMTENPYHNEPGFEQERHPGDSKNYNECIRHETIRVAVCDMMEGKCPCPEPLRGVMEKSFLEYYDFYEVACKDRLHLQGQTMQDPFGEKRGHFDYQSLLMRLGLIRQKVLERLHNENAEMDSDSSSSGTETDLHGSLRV
# UniProt Q9C0C9: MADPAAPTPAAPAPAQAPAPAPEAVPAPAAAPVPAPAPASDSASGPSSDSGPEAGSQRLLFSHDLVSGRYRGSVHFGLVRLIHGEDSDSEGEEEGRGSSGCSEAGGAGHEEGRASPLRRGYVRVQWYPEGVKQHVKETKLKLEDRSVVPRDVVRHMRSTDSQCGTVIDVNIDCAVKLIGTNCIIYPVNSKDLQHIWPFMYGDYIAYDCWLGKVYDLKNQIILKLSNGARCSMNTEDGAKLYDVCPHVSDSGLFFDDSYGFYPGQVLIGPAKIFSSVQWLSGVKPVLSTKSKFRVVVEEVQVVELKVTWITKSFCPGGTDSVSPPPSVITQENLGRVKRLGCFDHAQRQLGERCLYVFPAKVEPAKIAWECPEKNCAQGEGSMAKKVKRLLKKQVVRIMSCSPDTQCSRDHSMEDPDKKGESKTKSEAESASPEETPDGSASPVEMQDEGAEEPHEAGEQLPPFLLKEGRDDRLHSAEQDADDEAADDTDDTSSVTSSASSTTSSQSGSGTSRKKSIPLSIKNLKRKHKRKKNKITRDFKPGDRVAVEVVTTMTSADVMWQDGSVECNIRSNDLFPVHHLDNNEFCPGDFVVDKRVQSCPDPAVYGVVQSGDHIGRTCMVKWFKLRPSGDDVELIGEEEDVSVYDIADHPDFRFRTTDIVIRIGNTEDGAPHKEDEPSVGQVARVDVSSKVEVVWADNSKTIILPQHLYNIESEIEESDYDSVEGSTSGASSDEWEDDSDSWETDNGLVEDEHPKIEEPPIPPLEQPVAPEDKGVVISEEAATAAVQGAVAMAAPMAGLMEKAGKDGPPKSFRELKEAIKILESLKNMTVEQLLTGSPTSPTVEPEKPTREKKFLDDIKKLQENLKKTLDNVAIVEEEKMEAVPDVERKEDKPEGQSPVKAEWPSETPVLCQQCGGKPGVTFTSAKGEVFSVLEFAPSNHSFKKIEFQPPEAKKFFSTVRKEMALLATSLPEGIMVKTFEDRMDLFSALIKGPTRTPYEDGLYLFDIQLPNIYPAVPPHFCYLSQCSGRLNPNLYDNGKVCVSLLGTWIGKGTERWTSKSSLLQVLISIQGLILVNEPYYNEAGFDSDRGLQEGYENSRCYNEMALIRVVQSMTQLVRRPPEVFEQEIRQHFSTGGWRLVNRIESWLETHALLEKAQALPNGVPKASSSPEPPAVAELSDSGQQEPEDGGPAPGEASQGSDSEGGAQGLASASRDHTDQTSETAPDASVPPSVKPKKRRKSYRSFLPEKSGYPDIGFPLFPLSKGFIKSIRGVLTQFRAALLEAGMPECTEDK
# UniProt Q8TBC4: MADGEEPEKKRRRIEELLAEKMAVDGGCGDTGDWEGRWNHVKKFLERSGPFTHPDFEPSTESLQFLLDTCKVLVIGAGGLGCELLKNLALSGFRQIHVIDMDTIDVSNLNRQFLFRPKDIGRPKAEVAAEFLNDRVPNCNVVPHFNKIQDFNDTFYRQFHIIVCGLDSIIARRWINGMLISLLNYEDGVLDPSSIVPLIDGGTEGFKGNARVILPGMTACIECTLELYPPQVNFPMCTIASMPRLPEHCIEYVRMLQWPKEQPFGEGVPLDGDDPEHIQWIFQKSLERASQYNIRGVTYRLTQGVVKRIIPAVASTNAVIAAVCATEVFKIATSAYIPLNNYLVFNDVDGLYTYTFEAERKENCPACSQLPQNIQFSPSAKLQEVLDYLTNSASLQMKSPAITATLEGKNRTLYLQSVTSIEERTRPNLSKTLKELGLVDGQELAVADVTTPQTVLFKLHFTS
# UniProt O95071: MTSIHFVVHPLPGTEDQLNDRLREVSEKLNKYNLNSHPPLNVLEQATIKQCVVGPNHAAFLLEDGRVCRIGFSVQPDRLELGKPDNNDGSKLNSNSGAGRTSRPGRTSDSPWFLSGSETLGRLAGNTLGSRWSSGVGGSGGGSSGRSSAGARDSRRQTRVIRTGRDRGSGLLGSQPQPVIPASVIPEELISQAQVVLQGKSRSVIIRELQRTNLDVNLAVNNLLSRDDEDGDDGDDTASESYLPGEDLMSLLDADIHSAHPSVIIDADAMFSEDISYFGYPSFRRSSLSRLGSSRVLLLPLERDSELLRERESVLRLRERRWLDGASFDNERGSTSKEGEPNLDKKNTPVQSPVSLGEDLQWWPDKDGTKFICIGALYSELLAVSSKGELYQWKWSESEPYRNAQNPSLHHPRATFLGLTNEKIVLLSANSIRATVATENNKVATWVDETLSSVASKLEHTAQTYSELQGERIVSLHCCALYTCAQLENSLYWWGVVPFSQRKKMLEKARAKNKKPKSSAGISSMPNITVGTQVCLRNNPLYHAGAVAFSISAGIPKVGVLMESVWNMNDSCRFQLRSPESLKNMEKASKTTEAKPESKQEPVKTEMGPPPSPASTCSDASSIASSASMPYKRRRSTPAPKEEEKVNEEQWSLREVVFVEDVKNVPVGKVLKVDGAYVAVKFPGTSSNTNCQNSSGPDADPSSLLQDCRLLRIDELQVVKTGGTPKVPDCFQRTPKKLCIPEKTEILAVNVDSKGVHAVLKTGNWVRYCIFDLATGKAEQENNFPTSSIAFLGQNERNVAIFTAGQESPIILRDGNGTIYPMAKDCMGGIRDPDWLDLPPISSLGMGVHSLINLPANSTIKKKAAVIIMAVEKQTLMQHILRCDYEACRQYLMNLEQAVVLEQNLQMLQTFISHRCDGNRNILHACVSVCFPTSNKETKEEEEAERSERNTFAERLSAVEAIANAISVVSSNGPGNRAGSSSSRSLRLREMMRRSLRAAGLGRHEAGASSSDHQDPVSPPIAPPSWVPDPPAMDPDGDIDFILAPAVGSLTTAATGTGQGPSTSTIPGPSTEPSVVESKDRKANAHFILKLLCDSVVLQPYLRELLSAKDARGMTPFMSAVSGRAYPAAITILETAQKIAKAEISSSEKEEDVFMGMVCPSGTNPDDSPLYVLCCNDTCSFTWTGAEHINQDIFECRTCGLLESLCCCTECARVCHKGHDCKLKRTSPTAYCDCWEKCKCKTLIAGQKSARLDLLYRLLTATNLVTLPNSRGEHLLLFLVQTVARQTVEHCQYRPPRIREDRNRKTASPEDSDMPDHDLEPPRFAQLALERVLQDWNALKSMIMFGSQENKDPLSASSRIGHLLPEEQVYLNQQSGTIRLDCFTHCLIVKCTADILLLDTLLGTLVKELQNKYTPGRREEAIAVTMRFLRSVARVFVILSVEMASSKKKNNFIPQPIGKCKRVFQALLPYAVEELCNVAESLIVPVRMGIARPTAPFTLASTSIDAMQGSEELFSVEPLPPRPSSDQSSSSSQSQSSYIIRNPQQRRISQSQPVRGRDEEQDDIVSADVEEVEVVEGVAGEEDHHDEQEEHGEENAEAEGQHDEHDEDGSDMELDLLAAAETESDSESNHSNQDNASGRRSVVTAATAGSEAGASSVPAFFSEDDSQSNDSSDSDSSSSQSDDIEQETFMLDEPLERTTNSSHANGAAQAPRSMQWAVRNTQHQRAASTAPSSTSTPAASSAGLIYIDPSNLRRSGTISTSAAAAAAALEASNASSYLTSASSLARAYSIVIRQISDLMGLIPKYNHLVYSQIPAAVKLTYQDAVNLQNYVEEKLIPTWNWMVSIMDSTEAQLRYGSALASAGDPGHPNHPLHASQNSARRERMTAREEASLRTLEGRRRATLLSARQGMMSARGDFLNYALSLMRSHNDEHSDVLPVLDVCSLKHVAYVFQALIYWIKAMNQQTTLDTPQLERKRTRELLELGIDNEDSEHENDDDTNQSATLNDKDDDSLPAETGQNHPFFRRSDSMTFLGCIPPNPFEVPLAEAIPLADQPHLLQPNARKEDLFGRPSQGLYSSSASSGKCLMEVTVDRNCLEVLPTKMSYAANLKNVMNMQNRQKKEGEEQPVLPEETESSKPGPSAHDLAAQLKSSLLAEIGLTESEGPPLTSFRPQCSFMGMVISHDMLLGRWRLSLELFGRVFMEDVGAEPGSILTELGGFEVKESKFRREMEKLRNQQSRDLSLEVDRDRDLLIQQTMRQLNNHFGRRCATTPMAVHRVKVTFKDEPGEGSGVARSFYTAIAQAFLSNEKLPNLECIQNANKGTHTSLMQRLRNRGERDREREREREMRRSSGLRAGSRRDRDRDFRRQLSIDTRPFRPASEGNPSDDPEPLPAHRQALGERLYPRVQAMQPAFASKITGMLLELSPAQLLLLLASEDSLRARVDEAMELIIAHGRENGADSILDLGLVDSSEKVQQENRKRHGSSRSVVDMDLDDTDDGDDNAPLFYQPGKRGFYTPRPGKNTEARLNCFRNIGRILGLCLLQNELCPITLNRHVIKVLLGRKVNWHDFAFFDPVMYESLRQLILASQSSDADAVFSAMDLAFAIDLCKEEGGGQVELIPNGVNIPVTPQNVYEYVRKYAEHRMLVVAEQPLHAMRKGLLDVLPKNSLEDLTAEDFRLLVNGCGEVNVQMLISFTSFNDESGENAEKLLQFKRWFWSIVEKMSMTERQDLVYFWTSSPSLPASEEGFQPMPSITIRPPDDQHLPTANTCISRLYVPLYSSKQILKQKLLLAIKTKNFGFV
# UniProt Q9BZL1: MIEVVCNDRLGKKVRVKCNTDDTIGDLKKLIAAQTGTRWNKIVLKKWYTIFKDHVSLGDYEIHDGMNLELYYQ
# UniProt Q9UBT2: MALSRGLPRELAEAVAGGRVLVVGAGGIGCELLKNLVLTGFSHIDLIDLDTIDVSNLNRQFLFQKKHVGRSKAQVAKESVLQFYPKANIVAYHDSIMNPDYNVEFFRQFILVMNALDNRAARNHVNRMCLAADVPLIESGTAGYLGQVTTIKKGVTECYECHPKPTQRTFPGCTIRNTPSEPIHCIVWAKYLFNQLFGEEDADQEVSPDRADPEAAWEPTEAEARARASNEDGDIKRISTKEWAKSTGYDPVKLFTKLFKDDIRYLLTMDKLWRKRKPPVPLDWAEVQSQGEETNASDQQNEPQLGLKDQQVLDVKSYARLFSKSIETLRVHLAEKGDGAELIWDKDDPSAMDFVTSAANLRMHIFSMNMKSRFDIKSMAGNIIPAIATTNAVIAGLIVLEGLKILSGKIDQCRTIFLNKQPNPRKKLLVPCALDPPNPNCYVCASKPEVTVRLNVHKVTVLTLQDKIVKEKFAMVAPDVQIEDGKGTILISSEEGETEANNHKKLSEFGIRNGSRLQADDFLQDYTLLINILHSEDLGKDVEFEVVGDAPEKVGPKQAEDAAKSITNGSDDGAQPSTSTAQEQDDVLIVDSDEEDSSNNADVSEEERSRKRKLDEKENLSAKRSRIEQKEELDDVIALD
# The list shows a part of the results.
# Compound: Cc1cc(ccc1-c1ccccc1)C(=O)N1CCCN(CC1)C(=O)CCl [compound 10]
# Assay: probe-labelled cysteine peptide fold change vs DMSO (competition) (log2 fold change); higher = less target engagement (more negative = stronger competition)
# Conditions: 10 µM; THP-1; incubation time: 4 h
# 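Note: competitive profiling in live THP-1 cells: cysteine peptides tagged with an iodoacetamide desthiobiotin (IA-DTB) probe, intensity after compound treatment relative to DMSO-treated cells.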
row,Target,probe-labelled cysteine peptide fold change
1,UBR4_Q5T4S7_779_ASAQGDPDVPECLK (UniProt Q5T4S7),0.161
2,UBR4_Q5T4S7_1662_LCTFTITQK (UniProt Q5T4S7),-0.111
3,UBE3A_Q05086_843_LPTSHTCFNVLLLPEYSSK (UniProt Q05086),-0.126
4,UBE2Z_Q9H832_286_SFLEYYDFYEVACK (UniProt Q9H832),-0.214
5,UBE2O_Q9C0C9_353_CLYVFPAK (UniProt Q9C0C9),-0.197
6,UBA3_Q8TBC4_139_VPNCNVVPHFNK (UniProt Q8TBC4),-0.0131
7,UBR4_Q5T4S7_4430_VWCTTNEGEPMR (UniProt Q5T4S7),-0.0106
8,UBALD2_Q8IYN6_23_HQVMINQFVLAAGCAADQAK (UniProt Q8IYN6),0.55
9,UBN1_Q9NPG3_38_EEAGAGEQHQDCEPAAAAVR (UniProt Q9NPG3),-0.0725
10,U2SURP_O15042_65_ESLCDSPHQNLSR (UniProt O15042),0.224
11,UBE2R2_Q712K3_93_MWHPNIYENGDVCISILHPPVDDPQSGELPSER (UniProt Q712K3),-0.0923
12,UAP1L1_Q3KQV9_231_VAMAPDGNGGLYCALEDHK (UniProt Q3KQV9),0.0541
13,UBAP1_Q9NZ09_452_GFDPLLVEEALEMHQCSEEK (UniProt Q9NZ09),-0.0154
14,UBASH3B_Q8TF42_70_SVQAACDWLFSHVGDPFLDDPLPR (UniProt Q8TF42),0.0638
15,UBE2F_Q969M7_64_LHCFQLTVTPDEGYYQGGK (UniProt Q969M7),0.198
16,UBE2S_Q16763_118_CLLIHPNPESALNEEAGR (UniProt Q16763),0.161
17,UBR5_O95071_2546_ILGLCLLQNELCPITLNR (UniProt O95071),-0.0401
18,UBAP2L_Q14157_68+75_NQDECVIALHDCNGDVNR (UniProt Q14157),0.12
19,UBE2T_Q9NPD8_24_ELHMLATEPPPGITCWQDK (UniProt Q9NPD8),-0.209
20,UBR3_Q6ZT12_1289_KLPISEEEQIYPWDTCAAVHDVR (UniProt Q6ZT12),-0.189

# Same assay, conditions: 50 µM; THP-1; incubation time: 4 h
row,Target,probe-labelled cysteine peptide fold change
1,UACA_Q9BZF9_83_GNLECLNAILIHGVDITTSDTAGR (UniProt Q9BZF9),-0.293
2,UBE4B_O95155_113_SQSMDIDGVSCEK (UniProt O95155),-0.554
3,UBL5_Q9BZL1_6_IEVVCNDR (UniProt Q9BZL1),-0.229
4,UBR1_Q8IWV7_1197_IHVDLFDLESGEYLCPLCK (UniProt Q8IWV7),-0.0944
5,UBR5_O95071_51_QCVVGPNHAAFLLEDGR (UniProt O95071),0.166
6,UBE2O_Q9C0C9_598_VQSCPDPAVYGVVQSGDHIGR (UniProt Q9C0C9),-0.349
7,UBR4_Q5T4S7_2222_HTACNEQQR (UniProt Q5T4S7),-1.12
8,UBR2_Q8IWV8_837_GMYELKPECAK (UniProt Q8IWV8),-0.148
9,UBA2_Q9UBT2_161_GVTECYECHPKPTQR (UniProt Q9UBT2),-0.135
10,UAP1L1_Q3KQV9_278_LADPVFIGFCVLQGADCGAK (UniProt Q3KQV9),0.735
11,TXNRD1_Q16881_625_QLDSTIGIHPVCAEVFTTLSVTK (UniProt Q16881),0.315
12,UBA2_Q9UBT2_129_MCLAADVPLIESGTAGYLGQVTTIKK (UniProt Q9UBT2),-0.243
13,TXNL4A_P83876_38_FGHDWDPTCMK (UniProt P83876),0.182
14,UBR2_Q8IWV8_1619_LINLPEDYSSLINQASNFSCPK (UniProt Q8IWV8),-0.0342
15,UBA1_P22314_1039+1040_ALVLELCCNDESGEDVEVPYVR (UniProt P22314),0.0769
16,TYMP_P19971_361_ALCSGSPAER (UniProt P19971),0.0667
17,UBR4_Q5T4S7_779_ASAQGDPDVPECLK (UniProt Q5T4S7),0.427
18,UBR4_Q5T4S7_1662_LCTFTITQK (UniProt Q5T4S7),-0.214
19,UBE3A_Q05086_843_LPTSHTCFNVLLLPEYSSK (UniProt Q05086),-0.299
20,UBE2Z_Q9H832_286_SFLEYYDFYEVACK (UniProt Q9H832),-0.0615
21,UBE2O_Q9C0C9_353_CLYVFPAK (UniProt Q9C0C9),-0.291
22,UBA3_Q8TBC4_139_VPNCNVVPHFNK (UniProt Q8TBC4),0.115
23,UBR4_Q5T4S7_4430_VWCTTNEGEPMR (UniProt Q5T4S7),0.0362
